These are yes or no findings as the source states them, for the method shown. In cells and extracts the contact can be indirect. A yes stands for co-enrichment or nearness to the bait. Other partners may have been found. Tags and fused reporters may be left off the sequences shown.

Chains of the proteins cited; added tags and fusions are not shown.
UniProt Q15672: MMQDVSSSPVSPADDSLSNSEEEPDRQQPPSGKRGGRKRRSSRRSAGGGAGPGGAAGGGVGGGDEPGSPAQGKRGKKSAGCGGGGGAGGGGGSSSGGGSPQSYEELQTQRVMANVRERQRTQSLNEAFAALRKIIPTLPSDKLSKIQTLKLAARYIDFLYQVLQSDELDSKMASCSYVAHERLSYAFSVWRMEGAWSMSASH
UniProt P25490: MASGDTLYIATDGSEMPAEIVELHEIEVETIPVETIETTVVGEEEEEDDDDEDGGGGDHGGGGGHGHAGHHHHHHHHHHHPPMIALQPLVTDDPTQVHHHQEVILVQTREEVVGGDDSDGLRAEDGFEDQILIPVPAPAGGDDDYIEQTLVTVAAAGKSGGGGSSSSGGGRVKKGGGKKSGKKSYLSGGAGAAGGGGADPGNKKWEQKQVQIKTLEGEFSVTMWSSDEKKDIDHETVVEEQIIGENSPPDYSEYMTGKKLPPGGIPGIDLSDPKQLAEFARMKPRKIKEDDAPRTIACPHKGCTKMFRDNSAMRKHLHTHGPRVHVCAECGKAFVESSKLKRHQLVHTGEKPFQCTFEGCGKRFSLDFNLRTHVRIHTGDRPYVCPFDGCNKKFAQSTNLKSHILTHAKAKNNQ

The values below come from article PMC10750215.

The target in experiment [1] is T1, FLAG-VDBP (vitamin D binding protein, overexpressed) (UniProt P02774).
T1 sequence: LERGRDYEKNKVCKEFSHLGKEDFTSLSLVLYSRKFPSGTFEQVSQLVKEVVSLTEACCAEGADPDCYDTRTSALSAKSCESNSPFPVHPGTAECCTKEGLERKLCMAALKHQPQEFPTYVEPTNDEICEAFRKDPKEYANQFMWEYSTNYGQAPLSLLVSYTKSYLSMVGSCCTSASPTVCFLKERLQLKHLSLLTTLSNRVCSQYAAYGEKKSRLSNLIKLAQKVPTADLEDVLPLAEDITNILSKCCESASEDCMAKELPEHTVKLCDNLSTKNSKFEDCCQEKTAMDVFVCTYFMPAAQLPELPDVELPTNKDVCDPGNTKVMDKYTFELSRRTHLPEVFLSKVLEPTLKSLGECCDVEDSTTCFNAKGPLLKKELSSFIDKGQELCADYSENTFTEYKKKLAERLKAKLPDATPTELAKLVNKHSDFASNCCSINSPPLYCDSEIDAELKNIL
The experiment is described as follows: affinity purification with mass spectrometry; FLAG-VDBP pull-down from the lysate of MHCC-97H cells overexpressing VDBP, Matrigel 3D culture; silver staining and MS analysis.

Experiment [2] deals with T2, Flag-VDR (vitamin D receptor, overexpressed) (UniProt P11473).
T2 sequence: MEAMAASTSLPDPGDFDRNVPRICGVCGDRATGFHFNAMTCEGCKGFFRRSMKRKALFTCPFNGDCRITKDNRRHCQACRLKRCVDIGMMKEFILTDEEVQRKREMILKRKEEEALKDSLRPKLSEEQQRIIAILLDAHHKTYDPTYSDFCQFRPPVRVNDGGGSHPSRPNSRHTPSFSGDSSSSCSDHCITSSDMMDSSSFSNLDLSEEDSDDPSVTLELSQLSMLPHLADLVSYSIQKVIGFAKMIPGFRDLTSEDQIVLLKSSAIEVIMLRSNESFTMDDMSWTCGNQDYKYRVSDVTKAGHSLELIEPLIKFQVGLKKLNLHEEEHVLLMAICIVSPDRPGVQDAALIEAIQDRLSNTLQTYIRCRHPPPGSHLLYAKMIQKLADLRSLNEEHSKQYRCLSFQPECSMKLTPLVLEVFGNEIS
Kind of experiment: affinity purification with mass spectrometry; Flag-VDR pull-down from the nuclear lysate of MHCC-97H cells; silver staining and MS analysis.

Take Twist1 (from UniProt Q15672 1-202): the binding entry in experiment [1] was “binds”.

With “Yin Yang 1 (YY1) (from UniProt P25490 1-414)”, the binding entry in experiment [2] is “binds”.
